Results deposited as PubChem BioAssay AID1224826 (NIAID, 2016)
Here is an unselected part of about 17,000 reagents. Over the whole deposit, about 1,110 (6.6%) were called active. 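Active means lowered or raised reporter signal; replicate intensities are raw and not normalised per plate.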 Entries without a mark were called inactive.

- Aim: 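Knock-downs that raise or lower Tnf reporter signal after endotoxin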 (primary screen)
- Cells: RAW264.7 G9 macrophages from mouse bearing reporters for p65 (GFP) and the Tnf promoter (mCherry)
- Reagents: siRNA pool against mouse genes, 100 nM
- Time to read-out: 16 h of LPS stimulation, after 2 days of siRNA transfection
- Conditions: bacterial lipopolysaccharide (Salmonella minnesota R595), 10 ng/ml
- Read-out: 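Nuclear mCherry signal of the Tnf promoter reporter measured by imaging after background removal, scaled to each plate median and turned into robust z-scores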
- Scale: Tnf reporter robust z-score: higher = stronger Tnf promoter reporter signal after LPS; Tnf reporter intensity: higher = stronger Tnf promoter reporter signal
- Hit rule: 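Called active when robust z-score is at most -1.3, matching the median of the Tlr4 knock-down control, or over 3; control wells and wells with under 50 cells never active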
- Calls: active = Tnf reporter clearly lowered or raised; inactive = no clear change in Tnf reporter

| target | PubChem SID | Tnf reporter robust z-score | fewer than 50 cells in well | Tnf reporter intensity, replicate 1 | Tnf reporter intensity, replicate 2 |
| --- | --- | --- | --- | --- | --- |
| Synrg | SID315478066 | – | fewer than 50 cells per well; well left out of calls | 110 | 99 |
| Zap70 | SID315470085 | – | fewer than 50 cells per well; well left out of calls | 169 | 155 |
| Snrpe | SID315469367 | – | fewer than 50 cells per well; well left out of calls | 46.2 | 37.1 |
| Inpp4b | SID315479167 | 0.09 | enough cells in well | 256 | 148 |
| Or5k3 | SID315480608 | -1.47 (active) | enough cells in well | 52.8 | 57 |
| Bmi1 | SID315465645 | 1.02 | enough cells in well | 135 | 300 |
| Diaph2 | SID315471143 | 1.62 | enough cells in well | 357 | 321 |
| 1810009N02Rik | SID315473722 | -0.69 | enough cells in well | 161 | 65.8 |
| Shisa2 | SID315478240 | -0.01 | enough cells in well | 183 | 185 |
| Cby2 | SID315473314 | -1.17 | enough cells in well | 124 | 82.7 |
| Ogfod2 | SID315472549 | -0.7 | enough cells in well | 108 | 137 |
| Lime1 | SID315474608 | 1.66 | enough cells in well | 339 | 125 |
| Lrrc4c | SID315479575 | 0.97 | enough cells in well | 228 | 261 |

Laid out differently: entries from further up.
target	PubChem SID	Tnf reporter robust z-score	fewer than 50 cells in well	Tnf reporter intensity, replicate 1	Tnf reporter intensity, replicate 2
Shisa2	SID315478240	-0.01	enough cells in well	183	185
Cby2	SID315473314	-1.17	enough cells in well	124	82.7

The listing continues.
| target | PubChem SID | Tnf reporter robust z-score | fewer than 50 cells in well | Tnf reporter intensity, replicate 1 | Tnf reporter intensity, replicate 2 |
| --- | --- | --- | --- | --- | --- |
| Or2ag1 | SID315480640 | -0.37 | enough cells in well | 81 | 102 |
| Pitpnm2 | SID315468929 | – | fewer than 50 cells per well; well left out of calls | 122 | 73.4 |
| Trim34a | SID315476036 | 0.01 | enough cells in well | 114 | 96.5 |
| Gramd1a | SID315471024 | – | fewer than 50 cells per well; well left out of calls | 39.4 | 75.2 |
| Ms4a6b | SID315473896 | -0.03 | enough cells in well | 283 | 185 |
| Rab30 | SID315475226 | -0.22 | enough cells in well | 251 | 213 |
| Ptprt | SID315468823 | -0.41 | enough cells in well | 151 | 155 |
| Pxt1 | SID315473781 | 1.77 | enough cells in well | 329 | 140 |
| Rrp1 | SID315468200 | 1.06 | enough cells in well | 267 | 194 |
| Cd2ap | SID315465847 | 0.13 | enough cells in well | 226 | 246 |
| Abhd14a | SID315473594 | 3.15 (active) | enough cells in well | 319 | 281 |
